Data reported in patent US20090305971A1 (YALE UNIVERSITY, published 2009).
No constants are given. Whether binding was seen depends on the method and setting. For some assays here: In cells and extracts the contact can be indirect. Some entries that bind do so weakly or less than the wild type. For some assays here: Where a sequence is shown, tags or fusion partners need not be part of it.

What was measured:
[1] = biological target: T1, human Nogo-B receptor (NgBR), expressed from the cloned cDNA on transfected COS-7 or CHO cells (human) (UniProt Q96E22); assay: surface binding of AP proteins to CHO cells expressing NgBR (FIG. 11)
T1 sequence: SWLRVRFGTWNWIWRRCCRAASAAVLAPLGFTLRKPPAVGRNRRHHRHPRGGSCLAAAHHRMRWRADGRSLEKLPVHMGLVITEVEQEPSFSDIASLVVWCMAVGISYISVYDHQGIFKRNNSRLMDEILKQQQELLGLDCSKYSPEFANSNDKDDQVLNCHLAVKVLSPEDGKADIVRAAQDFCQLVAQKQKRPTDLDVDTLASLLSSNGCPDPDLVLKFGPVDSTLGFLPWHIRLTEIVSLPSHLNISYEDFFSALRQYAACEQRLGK

[2] = biological target: T2, Nogo-B receptor (NgBR), endogenous, on human umbilical vein endothelial cells (HUVEC) (human) (UniProt Q96E22); assay: surface binding of AP proteins to HUVEC (FIG. 12)
T2 sequence: T1 sequence

[3] = biological target: T3, NgBR-HA (full-length human NgBR with a C-terminal HA tag) (human) (UniProt Q96E22); assay: co-immunoprecipitation: CHO lysates with NgBR-HA mixed with purified Am-Nogo-B-myc, anti-HA beads, Western blot (FIG. 9)
T3 sequence: T1 sequence

[4] = biological target: T1, human Nogo-B receptor (NgBR), expressed from the cloned cDNA on transfected COS-7 or CHO cells (human); assay: competition with 10 nM AP-Am-Nogo-B on CHO cells transfected with NgBR (FIG. 8)
[5] = biological target: T1, human Nogo-B receptor (NgBR), expressed from the cloned cDNA on transfected COS-7 or CHO cells (human); assay: legend of FIG. 8, competition with AP-Am-Nogo-B on CHO cells expressing NgBR
[6] = biological target: T1, human Nogo-B receptor (NgBR), expressed from the cloned cDNA on transfected COS-7 or CHO cells (human); assay: legend of FIG. 7
[7] = biological target: T1, human Nogo-B receptor (NgBR), expressed from the cloned cDNA on transfected COS-7 or CHO cells (human); assay: legend of FIG. 8
[8] = biological target: T1, human Nogo-B receptor (NgBR), expressed from the cloned cDNA on transfected COS-7 or CHO cells (human); assay: AP-fusion binding to stable CHO cell lines (FIG. 20)
[9] = biological target: T2, Nogo-B receptor (NgBR), endogenous, on human umbilical vein endothelial cells (HUVEC) (human); assay: legend of FIG. 4, AP-fusion binding to HUVEC
[10] = biological target: T2, Nogo-B receptor (NgBR), endogenous, on human umbilical vein endothelial cells (HUVEC) (human); assay: legend of FIG. 42
[11] = biological target: T1, human Nogo-B receptor (NgBR), expressed from the cloned cDNA on transfected COS-7 or CHO cells (human); assay: legend of FIG. 10
[12] = biological target: T2, Nogo-B receptor (NgBR), endogenous, on human umbilical vein endothelial cells (HUVEC) (human); assay: legend of FIG. 45 (HUVEC part)
[13] = biological target: T1, human Nogo-B receptor (NgBR), expressed from the cloned cDNA on transfected COS-7 or CHO cells (human); assay: increasing concentrations of AP proteins on CHO cells expressing NgBR, 2 hours at 4 C (FIG. 10)
[14] = biological target: T1, human Nogo-B receptor (NgBR), expressed from the cloned cDNA on transfected COS-7 or CHO cells (human); assay: AP-fusion binding to COS cells transfected with the NgBR cDNA, AP staining (FIG. 6)
[15] = biological target: T1, human Nogo-B receptor (NgBR), expressed from the cloned cDNA on transfected COS-7 or CHO cells (human); assay: legend of FIG. 58
[16] = biological target: T1, human Nogo-B receptor (NgBR), expressed from the cloned cDNA on transfected COS-7 or CHO cells (human); assay: AP-fusion binding to cells expressing NgBR after S2 siRNA (FIG. 26D)
[17] = biological target: T3, NgBR-HA (full-length human NgBR with a C-terminal HA tag) (human); assay: AP-fusion binding to cells expressing NgBR-HA after S2 siRNA (FIG. 26D)
[18] = biological target: T2, Nogo-B receptor (NgBR), endogenous, on human umbilical vein endothelial cells (HUVEC) (human); assay: AP-fusion binding to HUVEC 72 hours after NgBR siRNA

Measured: binding

AP-Nogo-B (61-200) (from UniProt Q9NQC3 61-200) (ligand)
binds: [1] | [2]

Am-Nogo-B (residues 1-200 of human Nogo-B, secreted, with Myc-His tag) (from UniProt Q9NQC3 1-200) (ligand)
binds: [3] | [4] | [5]

B1: AP-Am-Nogo-B (alkaline phosphatase fusion protein with residues 1-200 at the amino terminus of human Nogo-B) (ligand, UniProt Q9NQC3-2 1-200, looked up)
chain: MEDLDQSPLVSSSDSPPRPQPAFKYQFVREPEDEEEEEEEEEEDEDEDLEELEVLERKPAAGLSAAPVPTAPAAGAPLMDFGNDFVPPAPRGPLPAAPPVAPERQPSWDPSPVSSTVPAPSPLSAAAVSPSKLPEDDEPPARPPPPPPASVSPQAEPVWTPPAPAPAAPPSTPAAPKRRGSSGSVVVDLLYWRDIKKTGV
notes: range 1-200; also called full-length AP-Am-Nogo-B; APNogo200; not shown: placental alkaline phosphatase coding region of vector pcAP-5
not listed: [3] | [4] | [5]
binds: all other assays above
